# Results from US6570069B1, “Nucleic acids encoding plant inhibitors of apoptosis and transgenic cells and plants expressing them” (priority 2000, dated 2003).
# Protein sequences, listed by entry. Tags and fused reporters are not part of them.
# UniProt P55211: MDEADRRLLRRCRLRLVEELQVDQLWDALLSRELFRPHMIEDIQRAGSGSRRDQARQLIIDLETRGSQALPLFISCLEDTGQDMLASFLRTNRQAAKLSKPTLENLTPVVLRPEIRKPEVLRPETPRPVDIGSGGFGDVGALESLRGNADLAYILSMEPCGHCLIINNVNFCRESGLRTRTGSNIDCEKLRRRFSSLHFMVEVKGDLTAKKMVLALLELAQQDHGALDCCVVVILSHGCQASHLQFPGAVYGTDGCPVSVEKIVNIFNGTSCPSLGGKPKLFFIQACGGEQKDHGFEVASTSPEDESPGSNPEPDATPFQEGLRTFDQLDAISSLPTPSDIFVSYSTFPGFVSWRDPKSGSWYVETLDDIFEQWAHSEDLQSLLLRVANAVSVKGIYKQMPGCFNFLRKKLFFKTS
# Results are given in words; binding and its absence hold for the method and conditions named. Some entries that bind do so weakly or less than the wild type. Where a sequence is shown, tags or fusion partners need not be part of it.
# B1: GST-CpIAP (other)
# chain: MSDLRLEEVRLNTFEKWPVSFLSPETMAKNGFYYLGRSDEVRCAFCKVEIMRWKEGEDPAADHKKWAPQCPFVKGIDVCGSIVTTNNIQNTTTHDTIIGPAHPKYAHEAARVKSFHNWPRCMKQRPEQMADAGFFYTGYGDNTKCFYCDGGLKDWEPEDVPWEQHVRWFDRCAYVQLVKGRDYVQKVITEACVLPGENTTVSTAAPVSEPIPETKIEKEPQVEDSKLCKICYVEECIVCFVPCGHVVACAKCALSVDKCPMCRKIVTSVLKVYFS
# notes: range 1-275
# Biological target: [35S]pro-caspase-9 (mammalian) (UniProt P55211)
# Assay: GST pull-down of in vitro-translated [35S]pro-caspase-9 on glutathione-Sepharose, SDS-PAGE and autoradiography
binder,measurement,value
B1,binding,binds
